Experimental data published in patent US7265263B1, “Potato transcription factors, methods of use thereof, and a method for enhancing tuber development” (Iowa State University Research Foundation, Inc., priority 2002, dated 2007).
These are yes or no findings as the source states them, for the method shown. For some assays here: Binding seen in cells or lysates may run through a third protein. Some entries that bind do so weakly or less than the wild type. Where a sequence is shown, tags or fusion partners need not be part of it.

Columns and labels:
[1] = target: T1, GAD:POTH1 fusion protein (Solanum tuberosum); assay: in vitro translated 35S-labelled proteins, co-immunoprecipitation with anti-GAD antibodies, SDS-PAGE autoradiography
T1 construct: 35S-methionine labelled, made by in vitro transcription/translation for the immunoprecipitation; also called POTH1:GAD
T1 chain: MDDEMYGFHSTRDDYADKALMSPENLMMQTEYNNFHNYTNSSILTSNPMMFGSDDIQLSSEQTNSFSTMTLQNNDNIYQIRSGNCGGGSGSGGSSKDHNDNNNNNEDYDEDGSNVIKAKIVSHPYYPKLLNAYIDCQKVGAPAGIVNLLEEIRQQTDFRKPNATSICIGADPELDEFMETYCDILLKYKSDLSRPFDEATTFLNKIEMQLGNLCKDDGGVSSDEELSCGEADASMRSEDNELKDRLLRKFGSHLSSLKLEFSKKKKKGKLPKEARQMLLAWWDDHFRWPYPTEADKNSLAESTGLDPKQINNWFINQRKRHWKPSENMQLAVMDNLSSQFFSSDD
Experimental: (§1) In vitro binding experiments were performed as described by Ni et al., "PIF3, a Phytochrome-Interacting Factor Necessary for Normal Photoinduced Signal Transduction, is a Novel Basic *Helix*-Loop-Helix Protein," *Cell* 95:657-667 (1998), which is hereby incorporated by reference in its entirety. The full-length sequence for POTH1 was cloned into a pET17b/GAD fusion cassette and transcribed under the control of the T7 promoter. The BEL cDNAs were cloned into pGEM11Z vectors and were transcribed under the control of the T7 promoter. ^35S-methionine labeled bait and prey proteins were synthesized using the TnT in vitro transcription-translation kit (Promega) according to the manufacturer's protocols. Each 50 μl TnT reaction contained 2.0 μg of template plasmid DNA and 20 μmol (20 μCi) of labeled ^35S-methionine. The POTH1:GAD/BEL complex was immunoprecipitated with anti-GAD antibodies (Santa Cruz Biotechnology, Calif.). The proteins from the pellet (one-half the fraction) and for the prey (one-fourth of the reaction volume) were resolved on a 10% SDS-PAGE gel and visualized by autoradiography.

[2] = target: T1, GAD:POTH1 fusion protein; assay: in vitro transcription/translation, immunoprecipitation assay
Experimental: as §1

B1: StBEL-05 protein from pGEM11Z (in vitro transcription/translation) (other)
chain: MYYQGTSDNTNIQADHQQRHNHGNSNNNNIQTLYLMNPNNYMQGYTTSDTQQQQQLLFLNSSPAASNALCHANIQHAPLQQQHFVGVPLPAVSLHDQINHHGLLQRMWNNQDQSQQVIVPSSTGVSATSCGGITTDLASQLAFQRPIPTPQHRQQQQQQGGLSLSLSPQLQQQISFNNNISSSSPRTNNVTIRGTLDGSSSNMVLGSKYLKAAQELLDEVVNIVGKSIKGDDQKKDNSMNKESMPLASDVNTNSSGGGESSSRQKNEVAVELTTAQRQELQMKKAKLLAMLEEVEQRYRQYHHQMQIIVLSFEQVAGIGSAKSYTQLALHAISKQFRCLKDAIAEQVKATSKSLGEEEGLGGKIEGSRLKFVDHHLRQQRALQQIGMMQPNAWRPQRGLPERAVSVLRAWLFEHFLHPYPKDSDKIMLAKQTGLTRSQVSNWFINARVRLWKPMVEEMYLEEVKNQEQNSTNTSGDNKNKETNISAPNEEKHPIITSSLLQDGITTTQAEISTSTISTSPTAGASLHHAHNFSFLGSFNMDNTTTTVDHIENNAKKQRNDMHKFSPSSILSSVDMEAKARESSNKGFTNPLMAAYAMGDFGRFDPHDQQMTANFHGNNGVSLTLGLPPSENLAMPVSQQNYLSNDLGSRSEMGSHYNRMGYENIDFQSGNKRFPTQLLPDFVTGNLGT
notes: 35S-methionine labelled prey; also called p11Z-5
[1]
  binding: binds
[2]
  binding: binds
